In patent US20160207973A1:
No constants are given. Whether binding was seen depends on the method and setting. Some results given as binding are weak or reduced against the parent protein; the word gives no strength. Sequences can lack the tags named with a protein.

By UniProt entry, the sequences of proteins in these tests, tags left out. Where a name states a change or a piece, a line headed by the entry shows the natural chain unless it says otherwise.
UniProt P22004: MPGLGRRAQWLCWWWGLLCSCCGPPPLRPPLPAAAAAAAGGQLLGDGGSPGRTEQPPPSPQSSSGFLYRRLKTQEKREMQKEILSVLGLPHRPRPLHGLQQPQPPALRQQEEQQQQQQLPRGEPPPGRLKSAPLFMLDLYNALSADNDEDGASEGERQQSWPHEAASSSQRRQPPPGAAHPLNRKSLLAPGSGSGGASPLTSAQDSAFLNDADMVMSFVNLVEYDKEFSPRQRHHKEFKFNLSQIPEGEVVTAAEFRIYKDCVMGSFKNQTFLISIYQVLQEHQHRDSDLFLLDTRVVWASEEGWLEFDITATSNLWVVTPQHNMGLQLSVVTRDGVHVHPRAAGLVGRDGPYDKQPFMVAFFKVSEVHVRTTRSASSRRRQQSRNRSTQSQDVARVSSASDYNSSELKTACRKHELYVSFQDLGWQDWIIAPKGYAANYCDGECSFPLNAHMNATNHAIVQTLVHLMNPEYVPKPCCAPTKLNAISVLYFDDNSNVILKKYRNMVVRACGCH
UniProt P12643: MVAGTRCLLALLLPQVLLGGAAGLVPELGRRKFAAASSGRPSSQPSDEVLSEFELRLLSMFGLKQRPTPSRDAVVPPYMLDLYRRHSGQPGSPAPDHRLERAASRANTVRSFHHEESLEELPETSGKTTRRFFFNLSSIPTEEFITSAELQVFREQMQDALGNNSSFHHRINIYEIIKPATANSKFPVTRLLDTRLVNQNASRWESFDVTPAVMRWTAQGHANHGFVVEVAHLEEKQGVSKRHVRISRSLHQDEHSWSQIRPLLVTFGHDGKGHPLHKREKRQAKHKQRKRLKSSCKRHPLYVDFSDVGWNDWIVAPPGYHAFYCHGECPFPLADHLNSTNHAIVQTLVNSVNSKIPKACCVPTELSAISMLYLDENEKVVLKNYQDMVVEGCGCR

Key:
Assay in all cases: BLI (Octet), receptor-Fc on anti-human IgG tips
[1] = molecular target: T1, ActRIIB receptor-human-IgG1-Fc fusion protein (human) (UniProt Q13705)
T1 sequence (looked up): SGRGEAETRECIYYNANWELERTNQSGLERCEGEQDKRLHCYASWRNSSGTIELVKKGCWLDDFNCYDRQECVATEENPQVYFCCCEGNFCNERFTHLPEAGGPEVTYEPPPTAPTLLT

[2] = molecular target: T2, BMPRII receptor-human-IgG1-Fc fusion protein (human) (UniProt Q13873)
T2 sequence (looked up): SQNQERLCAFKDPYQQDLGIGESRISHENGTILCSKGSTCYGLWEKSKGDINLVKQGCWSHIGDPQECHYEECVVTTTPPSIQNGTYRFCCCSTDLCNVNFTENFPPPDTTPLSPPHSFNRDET

[3] = molecular target: T3, ALK6 receptor-human-IgG1-Fc fusion protein (human) (UniProt O00238)
T3 sequence (looked up): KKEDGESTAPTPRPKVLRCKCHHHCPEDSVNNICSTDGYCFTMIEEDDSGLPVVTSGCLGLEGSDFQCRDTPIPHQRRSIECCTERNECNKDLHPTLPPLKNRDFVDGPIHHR

Substance | binding [1] | binding [2] | binding [3]
wild type BMP6 homodimer (from UniProt P22004 375-513) (ligand) | binds | binds | 
wild type BMP2 homodimer (from UniProt P12643 283-396) (ligand) |  |  | binds
wild type BMP2/6 heterodimer (from UniProt P12643 283-396; P22004 375-513) (ligand) |  |  | binds
